# Reference: publication doi:10.1101/2020.12.09.417345
# Results are given in words; binding and its absence hold for the method and conditions named. Binding seen in cells or lysates may run through a third protein. Some binding calls cover weakened binding; strength is not graded here. Tags and fused reporters may be left off the sequences shown.
# T1: SWEET17-cCFP^C (Arabidopsis thaliana) (UniProt Q84WN3)
# T1 sequence: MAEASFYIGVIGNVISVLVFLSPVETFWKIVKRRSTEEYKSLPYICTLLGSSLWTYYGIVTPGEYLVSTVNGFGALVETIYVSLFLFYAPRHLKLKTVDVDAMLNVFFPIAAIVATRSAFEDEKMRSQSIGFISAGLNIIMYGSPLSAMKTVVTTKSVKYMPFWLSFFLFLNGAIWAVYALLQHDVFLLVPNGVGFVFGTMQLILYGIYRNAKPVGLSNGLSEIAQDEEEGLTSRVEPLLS
# T2: SWEET17-nCerulean^C (Arabidopsis thaliana) (UniProt Q84WN3)
# T2 sequence: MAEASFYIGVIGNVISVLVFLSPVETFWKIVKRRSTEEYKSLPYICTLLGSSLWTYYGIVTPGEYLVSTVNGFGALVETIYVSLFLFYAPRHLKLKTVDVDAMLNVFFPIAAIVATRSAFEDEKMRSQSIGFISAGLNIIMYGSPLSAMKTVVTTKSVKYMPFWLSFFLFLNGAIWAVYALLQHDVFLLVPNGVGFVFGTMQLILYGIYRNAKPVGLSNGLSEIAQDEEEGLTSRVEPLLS
# Experiments:
# [1] = biological target: T1, SWEET17-cCFP^C (Arabidopsis thaliana); assay: split reporter
# [2] = biological target: T2, SWEET17-nCerulean^C (Arabidopsis thaliana); assay: split reporter
binding [1],binding [2],Binder
binds,–,"SWEET16-nVenus^C (protein, UniProt Q9LUR4 1-230) MADLSFYVGVIGNVISVLVFLSPVETFWRIVQRRSTEEYECFPYICTLMSSSLWTYYGIVTPGEYLVSTVNGFGALAESIYVLIFLFFVPKSRFLKTVVVVLALNVCFPVIAIAGTRTLFGDANSRSSSMGFICATLNIIMYGSPLSAIKTVVTTRSVQFMPFWLSFFLFLNGAIWGVYALLLHDMFLLVPNGMGFFLGIMQLLIYAYYRNAEPIVEDEEGLIPNQPLLA"
–,binds,"SWEET16-cCFP^C (protein, UniProt Q9LUR4 1-230) MADLSFYVGVIGNVISVLVFLSPVETFWRIVQRRSTEEYECFPYICTLMSSSLWTYYGIVTPGEYLVSTVNGFGALAESIYVLIFLFFVPKSRFLKTVVVVLALNVCFPVIAIAGTRTLFGDANSRSSSMGFICATLNIIMYGSPLSAIKTVVTTRSVQFMPFWLSFFLFLNGAIWGVYALLLHDMFLLVPNGMGFFLGIMQLLIYAYYRNAEPIVEDEEGLIPNQPLLA"
